Results published in patent US12491252B2, “Substituted 3-amino-5-phenylbenzamide compounds as covalent inhibitors of enhancer zeste homolog 2 (EZH2) and proteolysis-targeting chimeric derivatives thereof (PROTACs) that induce degradation of EZH2” (Northwestern University, priority 2021, dated 2025).
Where two headings read alike, the source gives them in different places.

Experiments:
Format in all cases: cell-based
LNCaP cells = test: WST cell proliferation/viability assay in LNCaP cells; details: Homo sapiens; Table 3; WST1 test cell viability on LNCaP; [Inhibitor] vs. normalized response; read-out: IC50 (best-fit value)
Method: FIG. 19A-19B. (FIG. 19A) WST cell proliferation assay of indicated compounds in LNCaP cells. […] (FIG. 19B) Effects of indicated compounds on EZH2, AR, and FOXA1 by western blot at 1 μM in LNCaP cells.
(§1) Cell proliferation was measured using WST-1 Kit (Clontech) according to manufacturer's protocol.

22Rv1 cells [1] = test: WST cell viability assay in 22Rv1 cells; details: Homo sapiens; Table 4; WST1 cell viability with different doses on 22Rv1; read-out: IC50 (best-fit value)
Method: as §1

22Rv1 cells [2] = test: Cell titer glo cell viability assay in 22Rv1 cells; details: Homo sapiens; Table 5; Cell titer glo test cell viability with different doses on 22Rv1; read-out: IC50 (best-fit value)
SU-DHL4 cells = test: WST cell viability assay in SU-DHL4 cells; details: for IC50: Homo sapiens, variable slope, read-out: IC50 (best-fit value)
Method: as §1

SU-DHL6 cells = test: WST cell viability assay in SU-DHL6 cells; details: Table 7; WST1 test cell viability with higher dose on SU-DHL6; variable slope
Method: as §1

IC50 (22Rv1 cells [1]): 57.5 µM | IC50 (22Rv1 cells [2]): 30.9 µM | IC50 (SU-DHL4 cells; SU-DHL-4, Table 8, WST1 test cell viability within 1 μM on SU-DHL4): 104 µM | IC50 (SU-DHL4 cells; SU-DHL-4, Table 9, WST1 test cell viability within 1 μM on SU-DHL4 (as titled)): 4.08 µM | IC50 (best-fit value) (SU-DHL6 cells): Unstable
Structure (SMILES): CCN(c1cc(-c2ccc(CN3CCOCC3)cc2)cc(C(=O)NCc2c(C)cc(C)[nH]c2=O)c1C)C1CCOCC1 [EPZ-6438, reference compound]
IC50 (LNCaP cells): 7.8 µM | logIC50 (best-fit value) (SU-DHL4 cells; Table 9, WST1 within 1 μM on SU-DHL4 (as titled)): 0.6103
